PubChem BioAssay AID1259308, NCATS, 2017
Here is one part, drawn at random, of about 59,000 reagents tested. Over the whole deposit, about 1,510 (2.6%) were called active. 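Calls use total luciferase alone and ignore viability, so some active siRNAs may act by altering cell number.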 Unmarked entries are inactive. The numbers tell different reagents against one gene apart. No sequences are given here.

Assay: 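Genes whose loss raises luciferase production in HEK293 cells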 (primary screen)
System: human HEK293 embryonic kidney cells stably expressing firefly luciferase (HEK-CMV-Luc2-Hygro)
Reagents: single siRNA against human genes, 0.8 pmol siRNA per well
Duration: 72 h
Measured: 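Reporter luminescence and viable-cell signal on separate replicate plates, given as percent of non-targeting control and median/MAD z-scores, plus per-cell luciferase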
Scale: total luciferase, z-score and total luciferase, % of control: higher = more reporter protein produced; luciferase per cell, z-score: higher = more reporter output per viable cell; viable cells, % of control: higher = more viable cells
Hit rule: 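Active when the median/MAD z-score for overall luciferase is greater than 3; a gene was taken forward for validation with new siRNAs if at least two of its three siRNAs passed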
Calls: active = raised luciferase; inactive = no rise

total luciferase, z-score	total luciferase, % of control	luciferase per cell, z-score	viable cells, % of control	gene	siRNA no.
-2.19	38.4	-2.49	82.6	SMAD2 (SMAD family member 2)	1
-0.25	76.9	0.216	81.2	SMAD2 (SMAD family member 2)	2
-2.77	26.9	-4.02	86.4	SMAD2 (SMAD family member 2)	3
0.564	93.1	0.47	91.9	UBE2V1 (ubiquitin conjugating enzyme E2 V1)	1
2.75	137	1.65	98.9	UBE2V1 (ubiquitin conjugating enzyme E2 V1)	2
1.38	109	0.665	102	UBE2V1 (ubiquitin conjugating enzyme E2 V1)	3
-0.642	69.1	-0.894	97.7	ELP1 (elongator acetyltransferase complex subunit 1)	1
1.26	107	0.326	110	ELP1 (elongator acetyltransferase complex subunit 1)	2
0.331	88.5	-0.163	103	ELP1 (elongator acetyltransferase complex subunit 1)	3
-0.419	73.5	-0.123	84.9	LUZP1 (leucine zipper protein 1)	1
0.603	93.9	0.0189	104	LUZP1 (leucine zipper protein 1)	2
0.918	100	0.748	91.9	LUZP1 (leucine zipper protein 1)	3
-1.39	54.2	-0.997	78.8	SLC38A4	1
1.66	115	0.666	108	SLC38A4	2
-0.329	75.3	-0.361	92.6	SLC38A4	3
-0.0814	80.3	0.487	78.9	MPIG6B (megakaryocyte and platelet inhibitory receptor G6b)	1
0.0678	83.2	0.545	80.6	MPIG6B (megakaryocyte and platelet inhibitory receptor G6b)	2
-1.1	60	-1.55	101	MPIG6B (megakaryocyte and platelet inhibitory receptor G6b)	3
-0.000419	81.9	-0.00197	91.5	LECT2 (leukocyte cell derived chemotaxin 2)	1
-1.42	53.7	-1.66	93	LECT2 (leukocyte cell derived chemotaxin 2)	2
0.473	91.3	0.158	97.9	LECT2 (leukocyte cell derived chemotaxin 2)	3
-0.191	78.1	0.123	84.5	KCNH2 (potassium voltage-gated channel subfamily H member 2)	1
-3.46	13.1	-4.21	44.3	KCNH2 (potassium voltage-gated channel subfamily H member 2)	2
-1.34	55.2	-1.69	96.2	KCNH2 (potassium voltage-gated channel subfamily H member 2)	3
4.64 (active)	174	4.24	63.7	MGRN1 (mahogunin ring finger 1)	1
3.87 (active)	159	1.7	113	MGRN1 (mahogunin ring finger 1)	2
-0.881	64.4	-0.989	93.3	MGRN1 (mahogunin ring finger 1)	3
2.22	126	2.03	82.6	YIPF7 (Yip1 domain family member 7)	1
-1.32	55.7	-0.957	80	YIPF7 (Yip1 domain family member 7)	2
-1.39	54.2	-0.549	70	YIPF7 (Yip1 domain family member 7)	3
-0.95	63	-1.41	102	CABLES2 (Cdk5 and Abl enzyme substrate 2)	1
0.326	88.4	0.0561	97.3	CABLES2 (Cdk5 and Abl enzyme substrate 2)	2
-0.267	76.6	-0.54	98.6	CABLES2 (Cdk5 and Abl enzyme substrate 2)	3
-0.105	79.8	-0.477	101	UBE3A (ubiquitin protein ligase E3A)	1
-1.04	61.2	-0.381	75.6	UBE3A (ubiquitin protein ligase E3A)	2
-1.8	46.1	-2.63	103	UBE3A (ubiquitin protein ligase E3A)	3
0.532	92.5	0.128	99.9	CNBD2 (cyclic nucleotide binding domain containing 2)	1
-0.675	68.5	-0.447	86.1	CNBD2 (cyclic nucleotide binding domain containing 2)	2
0.573	93.3	-0.0825	107	CNBD2 (cyclic nucleotide binding domain containing 2)	3
-1.1	60	-1.44	98	RPP30 (ribonuclease P/MRP subunit p30)	1
3.59 (active)	153	2.67	84.9	RPP30 (ribonuclease P/MRP subunit p30)	2
-1.83	45.4	-2.66	102	RPP30 (ribonuclease P/MRP subunit p30)	3
-0.173	78.4	0.251	82.1	GASK1B (golgi associated kinase 1B)	1
-0.876	64.5	-0.923	91.9	GASK1B (golgi associated kinase 1B)	2
-0.145	79	1.85	54.2	GASK1B (golgi associated kinase 1B)	3
-0.944	63.1	-1.35	101	SUV39H1 (SUV39H1 histone lysine methyltransferase)	1
-0.55	70.9	-0.357	87.1	SUV39H1 (SUV39H1 histone lysine methyltransferase)	2
2.49	131	2.11	84.2	SUV39H1 (SUV39H1 histone lysine methyltransferase)	3
-0.24	77.1	-0.674	103	KIFC1 (kinesin family member C1)	1
-0.633	69.3	-0.841	96.6	KIFC1 (kinesin family member C1)	2
-0.779	66.4	-0.684	88.8	KIFC1 (kinesin family member C1)	3
-1.84	45.4	-1.32	71.8	LINC00174 (long independently transcribed non-coding RNA 174)	1
0.962	101	0.53	98.2	LINC00174 (long independently transcribed non-coding RNA 174)	2
0.371	89.3	-0.165	104	LINC00174 (long independently transcribed non-coding RNA 174)	3
0.572	93.3	-0.416	116	PMAIP1 (phorbol-12-myristate-13-acetate-induced protein 1)	1
-2.43	33.5	-1.55	56.4	PMAIP1 (phorbol-12-myristate-13-acetate-induced protein 1)	2
3.43 (active)	150	2.13	95.6	PMAIP1 (phorbol-12-myristate-13-acetate-induced protein 1)	3

Not a retest: an excerpt of the list.
total luciferase, z-score	total luciferase, % of control	luciferase per cell, z-score	viable cells, % of control	gene	siRNA no.
-0.55	70.9	-0.357	87.1	SUV39H1 (SUV39H1 histone lysine methyltransferase)	2
2.49	131	2.11	84.2	SUV39H1 (SUV39H1 histone lysine methyltransferase)	3
-0.24	77.1	-0.674	103	KIFC1 (kinesin family member C1)	1
-0.633	69.3	-0.841	96.6	KIFC1 (kinesin family member C1)	2
-0.779	66.4	-0.684	88.8	KIFC1 (kinesin family member C1)	3
-1.84	45.4	-1.32	71.8	LINC00174 (long independently transcribed non-coding RNA 174)	1
0.962	101	0.53	98.2	LINC00174 (long independently transcribed non-coding RNA 174)	2
0.371	89.3	-0.165	104	LINC00174 (long independently transcribed non-coding RNA 174)	3
